The experiment addresses Rho-associated protein kinase 1 (UniProt Q13464). The experiment in a line: co-IP; cell lysates (RIPA buffer) incubated with IgG or specific antibody (2 ug, ROCK1 antibody) 14 h at 4 °C, protein G agarose beads 4 h, three RIPA washes; Coomassie staining and western blot. Background: Immunoblotting shows a protein as a band on a membrane.

By UniProt entry, the sequences of proteins in these tests, tags left out.
UniProt Q13464: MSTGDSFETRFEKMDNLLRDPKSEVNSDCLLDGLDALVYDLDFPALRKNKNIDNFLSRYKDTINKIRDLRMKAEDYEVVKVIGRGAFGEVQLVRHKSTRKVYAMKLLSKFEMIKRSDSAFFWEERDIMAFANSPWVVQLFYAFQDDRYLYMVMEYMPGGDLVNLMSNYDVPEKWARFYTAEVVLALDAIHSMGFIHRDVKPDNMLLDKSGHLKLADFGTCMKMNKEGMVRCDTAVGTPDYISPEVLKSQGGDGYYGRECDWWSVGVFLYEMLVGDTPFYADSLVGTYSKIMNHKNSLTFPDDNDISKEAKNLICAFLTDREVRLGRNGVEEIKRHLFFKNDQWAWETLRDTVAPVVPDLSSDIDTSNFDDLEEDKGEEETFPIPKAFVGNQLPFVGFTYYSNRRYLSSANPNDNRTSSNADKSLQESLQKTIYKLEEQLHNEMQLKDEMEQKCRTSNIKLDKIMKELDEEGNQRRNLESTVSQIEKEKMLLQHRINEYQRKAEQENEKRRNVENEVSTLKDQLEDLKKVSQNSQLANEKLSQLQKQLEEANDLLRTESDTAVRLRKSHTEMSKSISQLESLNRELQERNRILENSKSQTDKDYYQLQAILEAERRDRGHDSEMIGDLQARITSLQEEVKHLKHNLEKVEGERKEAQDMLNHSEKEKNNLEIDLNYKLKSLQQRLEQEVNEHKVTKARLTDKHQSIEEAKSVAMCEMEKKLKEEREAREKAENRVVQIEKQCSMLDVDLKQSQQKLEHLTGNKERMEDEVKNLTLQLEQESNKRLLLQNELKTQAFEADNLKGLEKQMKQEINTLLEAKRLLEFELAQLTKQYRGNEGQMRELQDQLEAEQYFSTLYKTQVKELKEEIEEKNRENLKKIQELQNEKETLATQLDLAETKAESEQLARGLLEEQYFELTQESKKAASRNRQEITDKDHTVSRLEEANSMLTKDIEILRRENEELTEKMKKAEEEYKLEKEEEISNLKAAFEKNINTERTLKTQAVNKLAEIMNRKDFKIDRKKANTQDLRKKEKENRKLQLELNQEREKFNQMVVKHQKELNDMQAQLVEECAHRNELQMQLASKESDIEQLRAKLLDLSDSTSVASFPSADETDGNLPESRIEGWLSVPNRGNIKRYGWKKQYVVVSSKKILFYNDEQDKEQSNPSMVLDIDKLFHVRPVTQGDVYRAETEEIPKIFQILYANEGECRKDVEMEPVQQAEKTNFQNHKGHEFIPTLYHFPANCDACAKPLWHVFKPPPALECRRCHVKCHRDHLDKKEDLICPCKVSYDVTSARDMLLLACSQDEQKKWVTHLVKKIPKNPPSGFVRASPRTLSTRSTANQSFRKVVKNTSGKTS
UniProt P46937: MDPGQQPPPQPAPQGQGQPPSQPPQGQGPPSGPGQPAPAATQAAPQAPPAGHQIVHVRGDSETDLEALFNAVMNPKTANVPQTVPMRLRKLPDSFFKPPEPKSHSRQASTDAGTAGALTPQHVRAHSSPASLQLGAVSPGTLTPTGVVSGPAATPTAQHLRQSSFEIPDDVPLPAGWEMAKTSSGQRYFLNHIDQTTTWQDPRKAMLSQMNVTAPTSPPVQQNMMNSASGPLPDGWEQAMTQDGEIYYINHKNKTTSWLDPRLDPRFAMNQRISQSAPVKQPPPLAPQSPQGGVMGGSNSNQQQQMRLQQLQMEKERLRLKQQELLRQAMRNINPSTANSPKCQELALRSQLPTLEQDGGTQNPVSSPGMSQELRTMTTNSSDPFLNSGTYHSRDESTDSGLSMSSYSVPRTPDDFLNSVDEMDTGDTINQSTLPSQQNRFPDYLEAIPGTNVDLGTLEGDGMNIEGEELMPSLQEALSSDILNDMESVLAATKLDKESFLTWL

These are yes or no findings as the source states them, for the method shown. Binding seen in cells or lysates may run through a third protein. Some results given as binding are weak or reduced against the parent protein; the word gives no strength.

The values that follow come from publication PMC12078694.

As to “yes-associated protein (from UniProt P46937 1-504)”, the binding entry is given as “binds”.
